The results in this text go back to paper doi:10.1101/727479.

Protein sequences, listed by entry. Tags and fused reporters are not part of them.
UniProt P23771: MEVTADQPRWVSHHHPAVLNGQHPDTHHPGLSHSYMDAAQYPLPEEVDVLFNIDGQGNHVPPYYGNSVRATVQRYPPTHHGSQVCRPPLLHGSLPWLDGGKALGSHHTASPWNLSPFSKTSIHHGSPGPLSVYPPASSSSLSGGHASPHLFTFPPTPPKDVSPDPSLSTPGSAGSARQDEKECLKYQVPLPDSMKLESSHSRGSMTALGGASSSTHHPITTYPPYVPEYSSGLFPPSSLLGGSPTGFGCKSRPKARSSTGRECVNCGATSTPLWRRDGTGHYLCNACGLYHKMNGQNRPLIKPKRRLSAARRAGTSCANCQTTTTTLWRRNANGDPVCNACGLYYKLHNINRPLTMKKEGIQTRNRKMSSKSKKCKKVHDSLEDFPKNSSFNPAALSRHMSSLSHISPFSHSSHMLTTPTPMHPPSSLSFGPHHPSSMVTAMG

For this assay, the target named is GATA binding protein 3 (GATA3) (human (endogenous in primary CD4+ T cells)) (UniProt P23771). The assay can be described thus: co-IP.

These are yes or no findings as the source states them, for the method shown. Binding seen in cells or lysates may run through a third protein. Some results given as binding are weak or reduced against the parent protein; the word gives no strength.

B1: superoxide dismutase 3 (SOD3) (protein, UniProt P08294 19-240)
chain: WTGEDSAEPNSDSAEWIRDMYAKVTEIWQEVMQRRDDDGALHAACQVQPSATLDAAQPRVTGVVLFRQLAPRAKLDAFFALEGFPTEPNSSSRAIHVHQFGDLSQGCESTGPHYNPLAVPHPQHPGDFGNFAVRDGSLWRYRAGLAASLAGPHSIVGRAVVVHAGEDDLGRGGNQASVENGNAGRRLACCVVGVCGPGLWERQAREHSERKKRRRESECKAA
As to B1, the binding result is given as “binds”.

B2: nuclear factor erythroid 2-related factor 2 (NRF2) (protein, UniProt Q16236 1-605)
chain: MMDLELPPPGLPSQQDMDLIDILWRQDIDLGVSREVFDFSQRRKEYELEKQKKLEKERQEQLQKEQEKAFFAQLQLDEETGEFLPIQPAQHIQSETSGSANYSQVAHIPKSDALYFDDCMQLLAQTFPFVDDNEVSSATFQSLVPDIPGHIESPVFIATNQAQSPETSVAQVAPVDLDGMQQDIEQVWEELLSIPELQCLNIENDKLVETTMVPSPEAKLTEVDNYHFYSSIPSMEKEVGNCSPHFLNAFEDSFSSILSTEDPNQLTVNSLNSDATVNTDFGDEFYSAFIAEPSISNSMPSPATLSHSLSELLNGPIDVSDLSLCKAFNQNHPESTAEFNDSDSGISLNTSPSVASPEHSVESSSYGDTLLGLSDSEVEELDSAPGSVKQNGPKTPVHSSGDMVQPLSPSQGQSTHVHDAQCENTPEKELPVSPGHRKTPFTKDKHSSRLEAHLTRDELRAKALHIPFPVEKIINLPVVDFNEMMSKEQFNEAQLALIRDIRRRGKNKVAAQNCRKRKLENIVELEQDLDHLKDEKEKLLKEKGENDKSLHLLKKQLSTLYLEVFSMLRDEDGKPYSPSEYSLQQTRDGNVFLVPKSKKPDVKKN
For the molecule B2, the binding entry is listed as “binds”.
